We go through 1 substance from paper doi:10.1101/2021.07.09.451837.

Chains of the proteins cited; added tags and fusions are not shown.
UniProt Q9SEH3: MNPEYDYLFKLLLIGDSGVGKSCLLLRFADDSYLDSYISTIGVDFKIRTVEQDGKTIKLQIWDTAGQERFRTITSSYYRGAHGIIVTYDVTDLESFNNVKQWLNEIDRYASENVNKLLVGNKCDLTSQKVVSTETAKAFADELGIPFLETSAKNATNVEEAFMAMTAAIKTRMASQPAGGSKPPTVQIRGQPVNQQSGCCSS

Where two headings read alike, the source gives them in different places. Results are given in words; binding and its absence hold for the method and conditions named. For some assays here: A result given as binding can be weak or reduced; the word gives no strength.

The target in test [1] is His6-tagged RabD2c (Rab GTPase, At4g17530) (Arabidopsis thaliana) (UniProt Q9SEH3). In words: pull-down.
Test [2] shares this target. In words: pull-down. The source holds these as a separate data set.

For “MBP-RXR1, full length (from UniProt Q9LSF2)”, the binding result is on record as “no binding (only with 1 mM GDP)” in test [1] and “binds” in test [2].
